Laboratory results published in patent US5260275A, “Hypoglycemics” (Amylin Pharmaceuticals, Inc., priority 1990, dated 1993).

Test system: polyclonal rabbit antiserum specific for amylin
Test: Interference with the amylin radioimmunoassay displacement curve
Settings: for Effect on the 125I-human amylin displacement curve: glibenclamide 1 μM, metformin 100 μM, tolbutamide 100 μM

Row | Structure (SMILES) | Effect on the 125I-human amylin displacement curve | Effect on the hamster amylin displacement curve (glucagon 5 μM, somatostatin 100 nM)
1 | CCCCNC(=O)NS(=O)(=O)c1ccc(C)cc1 [tolbutamide] | no effect | 
2 | CN(C)C(=N)N=C(N)N [metformin] | no effect | 
3 | C[C@H](N)C(=O)NCC(=O)N[C@H]1CSSC[C@@H](C(=O)O)NC(=O)[C@H](CO)NC(=O)[C@H]([C@@H](C)O)NC(=O)[C@H](Cc2ccccc2)NC(=O)[C@H]([C@@H](C)O)NC(=O)[C@H](CCCCN)NC(=O)[C@H](Cc2c[nH]c3ccccc23)NC(=O)[C@H](Cc2ccccc2)NC(=O)[C@H](Cc2ccccc2)NC(=O)[C@H](CC(N)=O)NC(=O)[C@H](CCCCN)NC1=O [Somatostatin] |  | no effect
4 | COc1ccc(Cl)cc1C(=O)NCCc1ccc(S(=O)(=O)NC(=O)NC2CCCCC2)cc1 [glibenclamide] | no effect | 
